Reference: publication PMC10427625, “Structural basis for negative regulation of the Escherichia coli maltose system” (Nature Communications, 2023)
Results are given in words; binding and its absence hold for the method and conditions named. Where a sequence is shown, tags or fusion partners need not be part of it.

Target: MalT (wild type), N-terminally His-tagged (Escherichia coli) (UniProt P06993)
Assay: condition: only without maltotriose (0.4 mM ATP or 0.1 mM ADP); SEC; Superdex 200 Increase 10/300 GL, 4 °C, in the presence of ADP; MalT (buffer A, 0.1 mM ADP) and MalY (buffer TKCl, 10 μM PLP) each alone, or incubated at a 1:1 molar ratio on ice for 30 min and run in buffer TKCl with 0.1 mM ADP and 10 μM PLP; both purified

binding: no binding
B1: MalT (wild type), N-terminally His-tagged (natural protein, Escherichia coli, UniProt P06993 1-901, looked up)
chain: MLIPSKLSRPVRLDHTVVRERLLAKLSGANNFRLALITSPAGYGKTTLISQWAAGKNDIGWYSLDEGDNQQERFASYLIAAVQQATNGHCAICETMAQKRQYASLTSLFAQLFIELAEWHSPLYLVIDDYHLITNPVIHESMRFFIRHQPENLTLVVLSRNLPQLGIANLRVRDQLLEIGSQQLAFTHQEAKQFFDCRLSSPIEAAESSRICDDVSGWATALQLIALSARQNTHSAHKSARRLAGINASHLSDYLVDEVLDNVDLATRHFLLKSAILRSMNDALITRVTGEENGQMRLEEIERQGLFLQRMDDTGEWFCYHPLFGNFLRQRCQWELAAELPEIHRAAAESWMAQGFPSEAIHHALAAGDALMLRDILLNHAWSLFNHSELSLLEESLKALPWDSLLENPQLVLLQAWLMQSQHRYGEVNTLLARAEHEIKDIREDTMHAEFNALRAQVAINDGNPDEAERLAKLALEELPPGWFYSRIVATSVLGEVLHCKGELTRSLALMQQTEQMARQHDVWHYALWSLIQQSEILFAQGFLQTAWETQEKAFQLINEQHLEQLPMHEFLVRIRAQLLWAWARLDEAEASARSGIEVLSSYQPQQQLQCLAMLIQCSLARGDLDNARSQLNRLENLLGNGKYHSDWISNANKVRVIYWQMTGDKAAAANWLRHTAKPEFANNHFLQGQWRNIARAQILLGEFEPAEIVLEELNENARSLRLMSDLNRNLLLLNQLYWQAGRKSDAQRVLLDALKLANRTGFISHFVIEGEAMAQQLRQLIQLNTLPELEQHRAQRILREINQHHRHKFAHFDENFVERLLNHPEVPELIRTSPLTQREWQVLGLIYSGYSNEQIAGELEVAATTIKTHIRNLYQKLGVAHRQDAVQHAQQLLKMMGYGV
notes: Purified with 0.1 mM ADP or 0.4 mM ATP; the elution at 103 kDa fits the whole protein; In PDB 8BOB only residues 1-423 are well defined; also called WT MalT; MalT WT; source: E. coli BL21 (DE3) ΔmalT220, purified (Ni Sepharose, gel filtration)
